Publication PMC3097235
These are yes or no findings as the source states them, for the method shown. In cells and extracts the contact can be indirect. Some binding calls cover weakened binding; strength is not graded here. Sequences can lack the tags named with a protein.

Columns and labels:
Test in all cases: co-IP; HEK 293 cells co-transfected with tyrosinase constructs and EDEM1, pulse-chased for 20 min; lysates precipitated with T311 anti-tyrosinase antibodies; autoradiography
[1] = molecular target: T1, human tyrosinase N-glycosylation mutant Δ4 (N230Q) (human) (UniProt P14679)
T1 sequence: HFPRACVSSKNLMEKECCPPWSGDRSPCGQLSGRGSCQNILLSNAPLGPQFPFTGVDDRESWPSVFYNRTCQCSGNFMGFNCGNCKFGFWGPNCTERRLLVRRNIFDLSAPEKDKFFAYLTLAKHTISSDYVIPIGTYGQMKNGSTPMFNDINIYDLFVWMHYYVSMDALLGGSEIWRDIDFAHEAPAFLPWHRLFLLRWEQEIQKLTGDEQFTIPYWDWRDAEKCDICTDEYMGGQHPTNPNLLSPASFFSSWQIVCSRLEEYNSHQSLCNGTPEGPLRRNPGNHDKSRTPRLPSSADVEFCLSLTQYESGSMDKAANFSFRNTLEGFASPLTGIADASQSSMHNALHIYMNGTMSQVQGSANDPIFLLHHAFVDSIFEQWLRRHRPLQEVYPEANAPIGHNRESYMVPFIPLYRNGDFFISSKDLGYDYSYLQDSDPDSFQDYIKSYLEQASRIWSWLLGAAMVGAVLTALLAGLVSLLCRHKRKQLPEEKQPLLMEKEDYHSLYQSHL

[2] = molecular target: T2, human tyrosinase N-glycosylation mutant Δ3 (N161Q) (human) (UniProt P14679)
T2 sequence: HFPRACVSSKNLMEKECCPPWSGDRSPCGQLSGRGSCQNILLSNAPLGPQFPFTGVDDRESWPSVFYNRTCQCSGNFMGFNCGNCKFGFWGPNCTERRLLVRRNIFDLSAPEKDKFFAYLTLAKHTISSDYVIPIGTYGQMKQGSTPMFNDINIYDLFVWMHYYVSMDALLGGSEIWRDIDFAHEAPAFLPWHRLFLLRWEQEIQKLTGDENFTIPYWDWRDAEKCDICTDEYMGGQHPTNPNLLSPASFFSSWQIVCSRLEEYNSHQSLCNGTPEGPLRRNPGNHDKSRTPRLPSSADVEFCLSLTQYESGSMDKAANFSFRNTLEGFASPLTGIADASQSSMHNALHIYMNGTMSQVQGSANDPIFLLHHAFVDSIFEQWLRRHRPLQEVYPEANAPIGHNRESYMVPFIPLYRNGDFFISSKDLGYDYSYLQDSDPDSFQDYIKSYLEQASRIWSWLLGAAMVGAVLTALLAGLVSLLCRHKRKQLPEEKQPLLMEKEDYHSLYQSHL

[3] = molecular target: T3, wild type human tyrosinase (human) (UniProt P14679)
T3 sequence: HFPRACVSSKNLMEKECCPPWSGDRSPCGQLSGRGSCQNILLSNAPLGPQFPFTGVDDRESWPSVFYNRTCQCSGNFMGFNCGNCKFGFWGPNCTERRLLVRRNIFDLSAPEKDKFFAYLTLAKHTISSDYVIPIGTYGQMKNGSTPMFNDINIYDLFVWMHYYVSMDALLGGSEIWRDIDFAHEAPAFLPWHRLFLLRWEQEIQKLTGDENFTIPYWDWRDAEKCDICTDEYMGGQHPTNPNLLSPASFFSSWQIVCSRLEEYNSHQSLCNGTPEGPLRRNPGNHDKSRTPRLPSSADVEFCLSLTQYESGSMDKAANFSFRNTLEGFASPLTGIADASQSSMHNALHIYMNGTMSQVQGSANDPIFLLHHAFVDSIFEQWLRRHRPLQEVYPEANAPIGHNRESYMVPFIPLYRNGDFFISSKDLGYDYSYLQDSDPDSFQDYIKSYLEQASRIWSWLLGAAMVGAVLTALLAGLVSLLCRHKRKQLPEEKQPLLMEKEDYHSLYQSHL

[4] = molecular target: T4, human tyrosinase N-glycosylation mutant Δ5 (N290Q) (human) (UniProt P14679)
T4 sequence: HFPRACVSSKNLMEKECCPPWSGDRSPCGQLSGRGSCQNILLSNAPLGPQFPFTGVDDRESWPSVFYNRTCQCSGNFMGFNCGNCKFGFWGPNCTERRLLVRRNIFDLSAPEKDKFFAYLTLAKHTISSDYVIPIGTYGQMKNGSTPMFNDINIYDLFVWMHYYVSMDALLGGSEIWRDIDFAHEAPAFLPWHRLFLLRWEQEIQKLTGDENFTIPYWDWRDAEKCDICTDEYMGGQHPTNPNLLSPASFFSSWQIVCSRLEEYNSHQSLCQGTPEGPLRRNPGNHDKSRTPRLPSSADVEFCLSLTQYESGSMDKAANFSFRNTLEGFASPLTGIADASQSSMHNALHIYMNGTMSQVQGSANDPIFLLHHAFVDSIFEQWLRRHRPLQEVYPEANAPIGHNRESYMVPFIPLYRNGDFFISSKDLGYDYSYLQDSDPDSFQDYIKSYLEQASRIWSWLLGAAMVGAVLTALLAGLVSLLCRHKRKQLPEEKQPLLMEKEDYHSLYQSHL

[5] = molecular target: T5, human tyrosinase N-glycosylation mutant Δ2 (N111Q) (human) (UniProt P14679)
T5 sequence: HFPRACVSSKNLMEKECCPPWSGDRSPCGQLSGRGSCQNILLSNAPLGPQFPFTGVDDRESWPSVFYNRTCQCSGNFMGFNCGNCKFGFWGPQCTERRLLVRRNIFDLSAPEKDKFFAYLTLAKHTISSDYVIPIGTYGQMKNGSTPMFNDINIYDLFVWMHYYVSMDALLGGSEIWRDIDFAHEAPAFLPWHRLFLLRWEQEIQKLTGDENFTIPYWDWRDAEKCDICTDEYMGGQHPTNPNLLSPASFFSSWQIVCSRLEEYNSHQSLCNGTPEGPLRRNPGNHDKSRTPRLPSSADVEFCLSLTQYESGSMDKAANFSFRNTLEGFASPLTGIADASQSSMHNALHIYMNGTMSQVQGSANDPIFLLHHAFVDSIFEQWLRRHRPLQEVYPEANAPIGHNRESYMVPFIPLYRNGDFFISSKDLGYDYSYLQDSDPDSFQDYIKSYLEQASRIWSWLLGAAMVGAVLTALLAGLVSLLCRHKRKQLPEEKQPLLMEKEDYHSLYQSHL

Measured: binding

B1: mouse EDEM fused to an HA-tag (protein, UniProt Q925U4 1-652)
chain: MQWRALVLGLVLLRLGLHAVLWLVFGLGPSMGFYQRFPLSFGFQRLRDPDGSGPVGPPGGPAWLHRPRRGTEGRLETPPEPGPTPGPGVCGPAHWGYALGGGGCGPDEYERRYSGAFPPQLRAQMRDLARGMFVFGYDNYMAHAFPQDELNPIYCRGRGPDRGDPSNLNINDVLGNYSLTLVDALDTLAIMGNSSEFQKAVKLVINTVSFDKDSTVQVFEATIRVLGSLLSAHRIITDSKQPFGDMTIEDYDNELLYMAHDLAVRLLPAFENTKTGIPYPRVNLKTGVPPDSNNETCTAGAGSLLVEFGILSRLLGDSTFEWVARRAVKALWNLRSNDTGLLGNVVNIQTGHWVGKQSGLGAGLDSFYEYLLKSYILFGEKEDLEMFNAAYQSIQSYLRRGREACNEGEGDPPLYVNVNMFSGQLMNTWIDSLQAFFPGLQVLIGDVEDAICLHAFYYAIWKRYGALPERYNWQLQAPDVLFYPLRPELVESTYLLYQATKNPFYLHVGMDILQSLEKYTKVKCGYATLHHVIDKSKEDRMESFFLSETCKYLYLLFDEENPVHKSGTRYMFTTEGHIISVDKRLRELPWKEFFSEDGERDQEEKFVHRPKSQELRVINSSSNCNRVPDERRYSLPLKSIYMRQIDQMVGLI
binds: all assays above
